Our source for the survivor count and T/C values is PubChem BioAssay AID330 (DTP/NCI, 2004).

This experiment has as its system P388 leukemia ip, CD2F1 mice, survival T/C. In words: NCI In Vivo Anticancer Drug Screen. Data for tumor model P388 Leukemia (intraperitoneal) in CD2F1 (CDF1) mice. Conditions: T/C endpoint: median survival time, higher T/C = longer survival.
Setting [1] is: dose: 100.0 mg/kg/injection, schedule: Q01DX005 (ip), vehicle: saline with Tween-80.
Where [2] appears, read: dose: 200.0 mg/kg/injection, schedule: Q01DX005 (ip), vehicle: saline with Tween-80.
[3] abbreviates: dose: 100.0 mg/kg/injection, schedule: Q01DX009 (ip), vehicle: saline with Tween-80.
[4] abbreviates: dose: 100.0 mg/kg/injection, schedule: Q01DX009 (ip), vehicle: saline.
[5] abbreviates: dose: 200.0 mg/kg/injection, schedule: Q01DX009 (ip), vehicle: saline with Tween-80.
Where [6] appears, read: dose: 120.0 mg/kg/injection, schedule: Q01DX005 (ip), vehicle: Klucel (hydroxypropylcellulose) (HPC).
[7] abbreviates: dose: 100.0 mg/kg/injection, schedule: Q01DX005 (ip), vehicle: Klucel (hydroxypropylcellulose) (HPC).
The mark [8] stands for this setting: dose: 200.0 mg/kg/injection, schedule: Q04DX003 (ip), vehicle: Klucel (hydroxypropylcellulose) (HPC).
The mark [9] stands for this setting: dose: 400.0 mg/kg/injection, schedule: Q04DX003 (ip), vehicle: Klucel (hydroxypropylcellulose) (HPC).
Setting [10] is: dose: 240.0 mg/kg/injection, schedule: Q01DX005 (ip), vehicle: Klucel (hydroxypropylcellulose) (HPC).

Molecules are shown by their SMILES. The list shows only some results of the screen, not a fair sample: it gathers tests that were run many times, whatever their T/C, doses with no T/C, and many T/C values between a quarter and a half above the control. Further doses and runs are listed elsewhere. T/C gives the treated animals as a percentage of the vehicle group. Some entries give survivors of the animals treated and no T/C: the source holds a T/C of zero for them, seemingly a mark for toxic or unscored doses. Some doses without a T/C left all or most animals alive at the check, yet need not have been tolerated: survival well below the control is almost never listed, so the zero probably covers shortened survival too. Survivors were counted at the toxicity check, usually on the fifth day, unless a day is given; later deaths do not show. Schedule codes are those of the source, taken here to give the interval after Q, in days (D) or hours (H), and the number of doses after X. Some entries hold several experiments; the results are listed from low to high. For survival time, this PubChem deposit counts one and a half times the control or more as active, and values a quarter to a half above the control carry no call in these data; other NCI protocols may use other cut-offs. Some T/C values are followed by the survivors on the day toxicity was checked, most often the fifth; without a count, all were alive then.

In the case of `CCOCC(=O)N[C@H]1CCc2cc(OC)c(OC)c(OC)c2-c2ccc(OC)c(=O)cc21`, the survivor count reads like this: (dose: 2.5 mg/kg/injection, schedule: Q01DX009 (ip), vehicle: water) 0 of 6 and 1 of 6; (dose: 5.0 mg/kg/injection, schedule: Q01DX009 (ip), vehicle: water) 0 of 6; (dose: 10.0 mg/kg/injection, schedule: Q01DX009 (ip), vehicle: water) 0 of 6.

As to `Cc1cc2c(c3c1c(=O)c1ccccc1n3C)C=CC(C)(C)O2`, the survivor count (dose: 50.0 mg/kg/injection, schedule: Q01DX005 (ip), vehicle: saline with Tween-80) is on record as 5 of 6. Moreover, the T/C is, setting by setting: under setting [1], 127 % of control; under setting [2], 130 % of control. In the case of `CCOC(=O)NOP(=O)(N1CC1(C)C)N1CC1(C)C` (configuration not stated), the T/C reads like this: (dose: 62.5 mg/kg/injection, schedule: Q01DX001 (ip), vehicle: other) 128 % of control; (dose: 125.0 mg/kg/injection, schedule: Q01DX001 (ip), vehicle: other) 140 % of control. On to `CC=C(/C(=C/C)c1ccc(O)cc1)c1ccc(O)cc1`, for which the T/C reads like this: under setting [3], 129 % of control; (dose: 150.0 mg/kg/injection, schedule: Q01DX009 (ip), vehicle: saline with Tween-80) 141 % of control.

Consider `CCCCC1NNC(CCCC)NN1` (configuration not stated), for which, under “dose: 200.0 mg/kg/injection, schedule: Q01DX009 (ip), vehicle: Klucel (hydroxypropylcellulose) (HPC)”, the survivor count is listed as 0 of 6.

As for `NCC(=O)NC1(C(=O)O)CCCC1`, the T/C under setting [4] is 134 % of control. On to `COc1cc(N)ccc1Nc1c2ccccc2nc2ccccc12`, for which the T/C (dose: 50.0 mg/kg/injection, schedule: Q04DX002 (ip), vehicle: distilled water + Tween-80) is 135 % of control. Further, the survivor count is 3 of 5 (dose: 200.0 mg/kg/injection, schedule: Q04DX002 (ip), vehicle: distilled water + Tween-80); 0 of 5 and 1 of 6 (dose: 400.0 mg/kg/injection, schedule: Q04DX002 (ip), vehicle: distilled water + Tween-80). For `CC1(C)C=C(NC(=O)N2CC2)C(C)(C)N1O`, the survivor count is on record as 3 of 6 under setting [3] and 0 of 6 under setting [5]. Take `O=C1NCCCCC1(Cl)Cl`: the survivor count runs as follows: under setting [1], 2 of 5; under setting [2], 0 of 5.

Consider `C=C(C)C(=O)NC(N)=NC#N`, for which, under setting [6], the survivor count is listed as 3 of 6. As to `C(=C\c1cc2ccc(C3=NCCN3)cc2[nH]1)/c1ccc2cc(C3=NCCN3)[nH]c2c1`, the survivor count under setting [7] is listed as 1 of 5 and the survivor count (dose: 200.0 mg/kg/injection, schedule: Q01DX005 (ip), vehicle: Klucel (hydroxypropylcellulose) (HPC)) is on record as 0 of 5. On to `CN=C(N)NN=C1c2ccccc2-c2ccccc21`, for which, for the setting “dose: 100.0 mg/kg/injection, schedule: Q04DX002 (ip), vehicle: saline with Tween-80”, the survivor count was 3 of 6. For the compound `Cn1c2ccccc2c2[nH]c3ccccc3c(=O)c21`, the survivor count under setting [7] was 5 of 6.

In the case of `C=CCOC(=O)CCl`, the survivor count under setting [8] was 0 of 6 and the survivor count under setting [9] is given as 0 of 6. Consider `COC(=O)C1=C(C(=O)OC)SC(=C2C3=C(SC(C(=O)OC)=C(C(=O)OC)S3)c3ccccc32)S1`, for which, under setting [6], the survivor count is on record as 6 of 6. As to `OCC1CCCN1` (configuration not stated), under “dose: 400.0 mg/kg/injection, schedule: Q04DX002 (ip), vehicle: saline”, the survivor count is 0 of 6.

Take `OCCN(Cc1ccccn1)Cc1ccccn1`: the survivor count (dose: 30.0 mg/kg/injection, schedule: Q01DX005 (ip), vehicle: saline) is 3 of 6; the survivor count (dose: 60.0 mg/kg/injection, schedule: Q01DX005 (ip), vehicle: saline) is given as 0 of 6; the survivor count (dose: 120.0 mg/kg/injection, schedule: Q01DX005 (ip), vehicle: saline) was 0 of 6; the survivor count (dose: 240.0 mg/kg/injection, schedule: Q01DX005 (ip), vehicle: saline) is reported as 0 of 6.

As for `CN(C)c1ccc(/C=N/NC(=O)c2ccccc2NC(=O)c2ccccc2Cl)cc1`, the survivor count by setting is: (dose: 30.0 mg/kg/injection, schedule: Q01DX005 (ip), vehicle: Klucel (hydroxypropylcellulose) (HPC)) 6 of 6; (dose: 60.0 mg/kg/injection, schedule: Q01DX005 (ip), vehicle: Klucel (hydroxypropylcellulose) (HPC)) 6 of 6; under setting [6], 6 of 6; under setting [10], 6 of 6. As to `ClC(Cl)(Cl)C(=NNc1ccccc1)C(Cl)(Cl)Cl`, the survivor count is given as 4 of 6 (dose: 120.0 mg/kg/injection, schedule: Q01DX005 (ip), vehicle: saline with Tween-80) and 0 of 6 (dose: 240.0 mg/kg/injection, schedule: Q01DX005 (ip), vehicle: saline with Tween-80). With `COc1cccc2c1C(=O)c1c(O)c3c(c(O)c1C2=O)CC(O)(/C(C)=N/NC(=O)CCCC(=O)N/N=C(\C)C1(O)Cc2c(O)c4c(c(O)c2C(OC2CC(N)C(O)C(C)O2)C1)C(=O)c1c(OC)cccc1C4=O)CC3OC1CC(N)C(O)C(C)O1` (configuration not stated), the T/C was 126 % of control (dose: 0.2 mg/kg/injection, schedule: Q01DX009 (ip), vehicle: water); 149 % of control (dose: 0.39 mg/kg/injection, schedule: Q01DX009 (ip), vehicle: water); 125 % of control (dose: 0.78 mg/kg/injection, schedule: Q01DX009 (ip), vehicle: water); 138 % of control (dose: 1.56 mg/kg/injection, schedule: Q01DX009 (ip), vehicle: water); 149 % of control [5 of 6 alive] (dose: 3.13 mg/kg/injection, schedule: Q01DX009 (ip), vehicle: water). Moreover, the survivor count (dose: 6.25 mg/kg/injection, schedule: Q01DX009 (ip), vehicle: water) was 0 of 6 and 5 of 6. With `[N-]=[N+]=NC(=O)c1cnn(Cc2ccccc2)c1N`, the survivor count (dose: 400.0 mg/kg/injection, schedule: Q01DX001 (ip), vehicle: saline with Tween-80) was 1 of 6.

On to `CC(=O)Nc1c(Cl)c(Cl)c2c(c1Cl)Cc1cc(Cl)ccc1-2`, for which the survivor count (dose: 12.5 mg/kg/injection, schedule: Q01DX009 (ip), vehicle: suspension in saline) is listed as 6 of 6 and the survivor count under setting [4] is 5 of 6. As for `O=NNc1ncccn1`, for the setting “dose: 200.0 mg/kg/injection, schedule: Q01DX009 (ip), vehicle: water”, the T/C was 130 % of control. Regarding `O=[N+]([O-])c1ccc(/C=[N+](\[O-])CCO)cc1`, for the setting “dose: 50.0 mg/kg/injection, schedule: Q01DX009 (ip), vehicle: saline with Tween-80”, the survivor count is listed as 6 of 6. On to `COc1cc(/C=C/C(=O)NCCc2c[nH]c3ccc(O)cc23)ccc1O`, for which the survivor count under setting [7] is reported as 6 of 6. As for `Cc1c([N+](=O)[O-])oc2c1C(=O)N([N+](=O)[O-])CCC2`, the survivor count is given as 2 of 6 under setting [8] and 0 of 6 under setting [9]. As for `CCOc1ccc(Nc2cc([N+](=O)[O-])ccc2C(=O)O)cc1`, under setting [3], the survivor count is listed as 6 of 6.

For `CC(C)NCC(O)COc1ccc(OCc2ccccc2)c(OCc2ccccc2)c1` (configuration not stated), the survivor count by setting is: under setting [3], 1 of 6; under setting [5], 0 of 6. In the case of `N#Cc1nnc2cc(-c3ccccc3)nn2c1-c1ccco1`, under setting [10], the survivor count is recorded as 6 of 6.

As to `CCCCN(C)c1ncnc2[nH]ncc12`, the survivor count (dose: 200.0 mg/kg/injection, schedule: Q04DX003 (ip), vehicle: saline) is recorded as 4 of 6 and the survivor count (dose: 400.0 mg/kg/injection, schedule: Q04DX003 (ip), vehicle: saline) is given as 0 of 6. Regarding `CCCCCCC(=O)/C=C/c1cccc(OCc2ccc([N+](=O)[O-])cc2)c1`, the survivor count under setting [3] is reported as 6 of 6.

`c1cc2cc3c(cc2o1)OC[C@H]1c2cc4c(cc2O[C@@H]31)OCO4`: the survivor count (dose: 400.0 mg/kg/injection, schedule: Q01DX001 (ip), vehicle: Klucel (hydroxypropylcellulose) (HPC)) is recorded as 6 of 6. With `O=C(N/N=C/c1ccc(O)cc1O)c1cccnc1`, the survivor count runs as follows: (dose: 200.0 mg/kg/injection, schedule: Q01DX009 (ip), vehicle: olive oil, sesame oil, peanut oil) 0 of 6; (dose: 400.0 mg/kg/injection, schedule: Q01DX009 (ip), vehicle: olive oil, sesame oil, peanut oil) 0 of 6.
